{"source": "PubChem BioAssay AID1259405 (NCATS, 2018)", "purpose": "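Knock-downs that lift recombinant protein yield in hamster ovary cells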 (primary screen)", "system": "Chinese hamster CHO-K1 ovary cells with stable secreted eGFP expression", "reagents": "single siRNA against mouse genes, 0.8 pmol siRNA per well (2 µl of 400 nM stock)", "duration": "3 days", "measured": "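Percent of the per-plate non-targeting control median for intracellular GFP per well by laser scanning cytometry and for cell viability by ATP luminescence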", "reading the numbers": "GFP, % of control: higher = more GFP per well, higher productivity; viability (ATP), % of control: higher = more viable cells (more ATP)", "call rule": "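a knock-down is called active if GFP reaches 120% or more of non-targeting control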", "note": "The whole screen tested about 50,000 reagents; this is a random part of them. Of all reagents, about 4,000 (8%) are marked active. 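Mouse siRNA library applied to hamster cells; one well for each siRNA.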 A number with no mark means an inactive call. No sequences are given here."}
{"target":"Raf1","PubChem SID":"SID363570737","GFP, % of control":67.6,"viability (ATP), % of control":66.8}
{"target":"Pou6f2","PubChem SID":"SID363573605","GFP, % of control":89,"viability (ATP), % of control":81.5}
{"target":"Pou6f2","PubChem SID":"SID363581349","GFP, % of control":74.9,"viability (ATP), % of control":51.4}
{"target":"Pou6f2","PubChem SID":"SID363583813","GFP, % of control":73.7,"viability (ATP), % of control":75.1}
{"target":"Hsd3b7","PubChem SID":"SID363569058","GFP, % of control":94.9,"viability (ATP), % of control":82.5}
{"target":"Hsd3b7","PubChem SID":"SID363583490","GFP, % of control":71.7,"viability (ATP), % of control":78}
{"target":"Rpl38","PubChem SID":"SID363554009","GFP, % of control":55.1,"viability (ATP), % of control":38.1}
{"target":"Rpl38","PubChem SID":"SID363561966","GFP, % of control":57.9,"viability (ATP), % of control":34.4}
{"target":"Rpl38","PubChem SID":"SID363565704","GFP, % of control":67.3,"viability (ATP), % of control":50.3}
{"target":"Kif21b","PubChem SID":"SID363540225","GFP, % of control":53.5,"viability (ATP), % of control":59.9}
{"target":"Kif21b","PubChem SID":"SID363541977","GFP, % of control":111,"viability (ATP), % of control":97}
{"target":"Kif21b","PubChem SID":"SID363566893","GFP, % of control":114,"viability (ATP), % of control":79.9}

Next part; the last 3 above are carried over.
{"target":"Kif21b","PubChem SID":"SID363540225","GFP, % of control":53.5,"viability (ATP), % of control":59.9}
{"target":"Kif21b","PubChem SID":"SID363541977","GFP, % of control":111,"viability (ATP), % of control":97}
{"target":"Kif21b","PubChem SID":"SID363566893","GFP, % of control":114,"viability (ATP), % of control":79.9}
{"target":"Exd2","PubChem SID":"SID363542400","GFP, % of control":93.5,"viability (ATP), % of control":96.7}
{"target":"Exd2","PubChem SID":"SID363551891","GFP, % of control":"137 (active)","viability (ATP), % of control":86.8}
{"target":"Exd2","PubChem SID":"SID363559496","GFP, % of control":75.2,"viability (ATP), % of control":79.6}
{"target":"Kcnn1","PubChem SID":"SID363574914","GFP, % of control":92.3,"viability (ATP), % of control":80.7}
{"target":"Kcnn1","PubChem SID":"SID363575970","GFP, % of control":66.1,"viability (ATP), % of control":62.4}
{"target":"Kcnn1","PubChem SID":"SID363580546","GFP, % of control":74.2,"viability (ATP), % of control":39.7}
{"target":"Aurkaip1","PubChem SID":"SID363569098","GFP, % of control":"122 (active)","viability (ATP), % of control":86.2}
{"target":"Aurkaip1","PubChem SID":"SID363583530","GFP, % of control":76.9,"viability (ATP), % of control":79.3}
{"target":"Or1j20","PubChem SID":"SID363554227","GFP, % of control":97.2,"viability (ATP), % of control":74.4}
{"target":"Or1j20","PubChem SID":"SID363567674","GFP, % of control":119,"viability (ATP), % of control":58.1}
{"target":"Or1j20","PubChem SID":"SID363585031","GFP, % of control":53,"viability (ATP), % of control":103}
{"target":"Gstz1","PubChem SID":"SID363545408","GFP, % of control":66.9,"viability (ATP), % of control":93.1}
{"target":"Gstz1","PubChem SID":"SID363548921","GFP, % of control":64.1,"viability (ATP), % of control":88.7}
{"target":"Gstz1","PubChem SID":"SID363562727","GFP, % of control":73.8,"viability (ATP), % of control":77.3}
{"target":"Sgip1","PubChem SID":"SID363543826","GFP, % of control":87.1,"viability (ATP), % of control":72.6}
{"target":"Sgip1","PubChem SID":"SID363551562","GFP, % of control":76.8,"viability (ATP), % of control":126}
{"target":"Sgip1","PubChem SID":"SID363559167","GFP, % of control":"126 (active)","viability (ATP), % of control":81.2}
